Laboratory results reported in paper PMC5050456.
These are yes or no findings as the source states them, for the method shown. In cells and extracts the contact can be indirect. Some entries that bind do so weakly or less than the wild type.

T1: Bcl-xL (rat (endogenous in spinal cord of SD rats)), P53563
T1 chain: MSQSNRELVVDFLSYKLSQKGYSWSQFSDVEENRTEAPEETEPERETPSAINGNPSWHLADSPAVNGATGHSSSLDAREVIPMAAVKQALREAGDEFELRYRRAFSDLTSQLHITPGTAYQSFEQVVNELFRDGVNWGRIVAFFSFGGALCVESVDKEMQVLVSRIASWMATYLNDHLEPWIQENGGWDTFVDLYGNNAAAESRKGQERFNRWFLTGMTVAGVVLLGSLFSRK

T2: Bcl-xL (in VSC4.1 cells) (not stated (endogenous in VSC4.1 cells)), P53563
T2 chain: T1 chain

B1: Bad, O35147 1-205 (protein)
chain: MGTPKQPSLAPAHALGLRKSDPGIRSLGSDAGGRRWRPAAQSMFQIPEFEPSEQEDASTTDRGLGPSLTEDQPGPYLAPGLLGSIVQQQPGQAANNSHHGGAGTMETRSRHSSYPAGTEEDEGMEEELSPFRGRSRSAPPNLWAAQRYGRELRRMSDEFEGSFKGLPRPKSAGTATQMRQSASWTRIIQSWWDRNLGKGGSTPSQ
B2: Bad (in VSC4.1 cells), O35147 1-205 (protein)
chain: B1 chain

Assays:
[1] = target: T1, Bcl-xL (rat (endogenous in spinal cord …)); experiment: co-IP; about 100 ug mitochondrial fraction of rat spinal cord; precipitated with polyclonal rabbit anti-Bcl-xL antibody and protein A+G sepharose, 5 h at 4 °C; washed 6 times with TNE buffer (10 mM Tris-HCl pH 7.5, 1% NP-40, 0.15 M NaCl, 1 mM EDTA); blotted with anti-Bad and anti-Bcl-xL; rats treated with saline, HD, or HD and then BMSC transplantation; settings: remark: other sources report otherwise
[2] = target: T2, Bcl-xL (in VSC4.1 cells) (not stated …); experiment: co-IP; VSC4.1 cells; Bad co-precipitated by anti-Bcl-xL antibody; cells treated with HD (25 mM), HD and then BMSC-CM, with or without the Akt inhibitor MK-2206; the methods describe the procedure only for spinal cord; settings: remark: other sources report otherwise

Binder | binding [1] | binding [2]
B1 | binds | 
B2 |  | binds
